Like-named read-outs stand apart in the source and are kept apart here. This continues a long series; more values of the same kind are listed elsewhere.
Test system: TC/TEAD transcriptional profile in TC-expressing NIH3T3 cells
Assay: Bulk RNA-Seq, differential gene expression and GSEA (TC ATA v. TC DMSO)
Assay type: cell-based, murine
Protocol: NIH3T3 and HEK293 cells were obtained from the American Type Tissue Collection (ATCC, Manassas, VA) and cultured in DMEM containing 10% fetal bovine serum and penicillin/streptomycin. A TEAD dual luciferase reporter assay was performed as previously described. Cells were treated with vehicle control or ATA (10 μM) for 48 h before measuring the luciferase activity or processing the samples for RNA extraction. Each experiment was repeated at least 2-3 times. NIH3T3 cells were used. The extracted RNA (RNeasy Mini, Qiagen) from treated cells was either used for qPCR measurements or sent for bulk RNA-Seq. Sequencing runs were performed on an Illumina HiSeq 4000 sequencer (Genewiz). Subsequent bioinformatics analysis was performed in the Galaxy Project platform. Paired end reads were aligned to the murine genome ([…]2 [27]. Raw count files were generated with featureCounts using a corresponding GTF reference. Differential gene expression analysis was performed with DESeq2 [29]. Transcripts were considered to be differentially expressed if the false discovery rate < 0.05 and Log2FC > 2. When performing differential gene expression for GSEA analysis, the Limma package was used (<5 CPM filtering) with t-scores used for rank statistics. GSEA plots and statistics were generated with FGSEA with custom gene sets. Raw sequencing reads and processed files have been deposited in the GEO repository (data will be uploaded upon manuscript acceptance). The Universal Probe Library probes (Roche) and the associated primer sequences for the qPCR targets are listed below: […]

O=C(O)C1=CC(=C(c2ccc(O)c(C(=O)O)c2)c2ccc(O)c(C(=O)O)c2)C=CC1=O [ATA, aurintricarboxylic acid]
Log2 Fold Change: 0.2045 | Log2 Fold Change (3425401B19Rik, TC ATA v. TC DMSO): 0.7409 | Log2 Fold Change (8030462N17Rik, TC ATA v. TC DMSO): -0.2874 | Log2 Fold Change (Aatf, TC ATA v. TC DMSO): -0.2352 | Log2 Fold Change (Abhd4, TC ATA v. TC DMSO): 0.3011 | Log2 Fold Change (Acap3, TC ATA v. TC DMSO): 0.2894 | Log2 Fold Change (Accsl, TC ATA v. TC DMSO): 1.273 | Log2 Fold Change (Acot7, TC ATA v. TC DMSO): -0.2635 | Log2 Fold Change (Adam10, TC ATA v. TC DMSO): 0.2386 | Log2 Fold Change (Adam19, TC ATA v. TC DMSO): -0.2723 | Log2 Fold Change (Adamts7, TC ATA v. TC DMSO): -0.3907 | Log2 Fold Change (Add2, TC ATA v. TC DMSO): -1.031 | Log2 Fold Change (Agps, TC ATA v. TC DMSO): -0.2024 | Log2 Fold Change (Akap12, TC ATA v. TC DMSO): 0.3156 | Log2 Fold Change (Anks1b, TC ATA v. TC DMSO): -0.4283 | Log2 Fold Change (Ano10, TC ATA v. TC DMSO): 0.3064 | Log2 Fold Change (App, TC ATA v. TC DMSO): 0.218 | Log2 Fold Change (Arhgap20, TC ATA v. TC DMSO): 0.5197 | Log2 Fold Change (Arrb1, TC ATA v. TC DMSO): 0.3521 | Log2 Fold Change (Arrdc3, TC ATA v. TC DMSO): 0.2956 | Log2 Fold Change (Asb2, TC ATA v. TC DMSO): 0.5435 | Log2 Fold Change (Atp6ap2, TC ATA v. TC DMSO): 0.2427 | Log2 Fold Change (Atp8b2, TC ATA v. TC DMSO): 0.2261 | Log2 Fold Change (Atraid, TC ATA v. TC DMSO): 0.3834 | Log2 Fold Change (Bdkrb1, TC ATA v. TC DMSO): 1.219 | Log2 Fold Change (Btg2, TC ATA v. TC DMSO): 0.4034 | Log2 Fold Change (Btn1a1, TC ATA v. TC DMSO): -0.7404 | Log2 Fold Change (C1rl, TC ATA v. TC DMSO): 0.738 | Log2 Fold Change (Cacna1s, TC ATA v. TC DMSO): 0.5059 | Log2 Fold Change (Calhm2, TC ATA v. TC DMSO): 0.5559 | Log2 Fold Change (Capn2, TC ATA v. TC DMSO): -0.193 | Log2 Fold Change (Card19, TC ATA v. TC DMSO): 0.3138 | Log2 Fold Change (Casp12, TC ATA v. TC DMSO): 0.3191 | Log2 Fold Change (Cd36, TC ATA v. TC DMSO): 0.9953 | Log2 Fold Change (Cd44, TC ATA v. TC DMSO): -0.2149 | Log2 Fold Change (Cdc42se1, TC ATA v. TC DMSO): 0.2445 | Log2 Fold Change (Cdk18, TC ATA v. TC DMSO): -0.2357 | Log2 Fold Change (Celf5, TC ATA v. TC DMSO): 0.4618 | Log2 Fold Change (Cers5, TC ATA v. TC DMSO): 0.2188 | Log2 Fold Change (Clic5, TC ATA v. TC DMSO): 0.7796 | Log2 Fold Change (Cmtm3, TC ATA v. TC DMSO): 0.2156 | Log2 Fold Change (Col6a2, TC ATA v. TC DMSO): 0.3379 | Log2 Fold Change (Coq10a, TC ATA v. TC DMSO): 0.4029 | Log2 Fold Change (Cplx2, TC ATA v. TC DMSO): 0.2813 | Log2 Fold Change (Crebrf, TC ATA v. TC DMSO): 0.3555 | Log2 Fold Change (Crocc2, TC ATA v. TC DMSO): 0.6594 | Log2 Fold Change (Ctdsp2, TC ATA v. TC DMSO): 0.2516 | Log2 Fold Change (Ctsk, TC ATA v. TC DMSO): 0.4047 | Log2 Fold Change (Cxxc5, TC ATA v. TC DMSO): 0.3278 | Log2 Fold Change (Cyp2j6, TC ATA v. TC DMSO): 0.4082 | Log2 Fold Change (Dagla, TC ATA v. TC DMSO): -0.2839 | Log2 Fold Change (Dctd, TC ATA v. TC DMSO): -0.2607 | Log2 Fold Change (Ddx18, TC ATA v. TC DMSO): -0.2011 | Log2 Fold Change (Dgkz, TC ATA v. TC DMSO): -0.2256 | Log2 Fold Change (Dnajc3, TC ATA v. TC DMSO): 0.2583 | Log2 Fold Change (Dusp3, TC ATA v. TC DMSO): -0.2618 | Log2 Fold Change (Dusp5, TC ATA v. TC DMSO): -0.3501 | Log2 Fold Change (Eif2ak3, TC ATA v. TC DMSO): 0.3149 | Log2 Fold Change (Elmod3, TC ATA v. TC DMSO): 0.4179 | Log2 Fold Change (Emp1, TC ATA v. TC DMSO): -0.2395 | Log2 Fold Change (Eno2, TC ATA v. TC DMSO): 0.4152 | Log2 Fold Change (Enpp1, TC ATA v. TC DMSO): -0.3155 | Log2 Fold Change (Entpd5, TC ATA v. TC DMSO): 0.3022 | Log2 Fold Change (Epha2, TC ATA v. TC DMSO): -0.2242 | Log2 Fold Change (Erlec1, TC ATA v. TC DMSO): 0.2838 | Log2 Fold Change (Eya1, TC ATA v. TC DMSO): 0.3551 | Log2 Fold Change (F2r, TC ATA v. TC DMSO): 0.2295 | Log2 Fold Change (Fabp4, TC ATA v. TC DMSO): 0.7675 | Log2 Fold Change (Fam50a, TC ATA v. TC DMSO): 0.2362 | Log2 Fold Change (Fam171a1, TC ATA v. TC DMSO): -0.2264 | Log2 Fold Change (Fam234a, TC ATA v. TC DMSO): 0.2879 | Log2 Fold Change (Fkbp7, TC ATA v. TC DMSO): 0.3474 | Log2 Fold Change (Fuca2, TC ATA v. TC DMSO): 0.2852 | Log2 Fold Change (Fxyd6, TC ATA v. TC DMSO): 1.236 | Log2 Fold Change (Glul, TC ATA v. TC DMSO): -0.2652 | Log2 Fold Change (Gm2451, TC ATA v. TC DMSO): -0.6661 | Log2 Fold Change (Gm4841, TC ATA v. TC DMSO): -1.1029 | Log2 Fold Change (Gm6741, TC ATA v. TC DMSO): 1.204 | Log2 Fold Change (Gm10359, TC ATA v. TC DMSO): -0.7348 | Log2 Fold Change (Gm11478, TC ATA v. TC DMSO): -0.6635 | Log2 Fold Change (Gm12684, TC ATA v. TC DMSO): 1.198 | Log2 Fold Change (Gm14046, TC ATA v. TC DMSO): 1.114 | Log2 Fold Change (Gm21680, TC ATA v. TC DMSO): 1.106 | Log2 Fold Change (Gm43154, TC ATA v. TC DMSO): -1.088 | Log2 Fold Change (Gm47223, TC ATA v. TC DMSO): 0.4394 | Log2 Fold Change (Gpc6, TC ATA v. TC DMSO): 0.4134 | Log2 Fold Change (Gpr149, TC ATA v. TC DMSO): -1.21 | Log2 Fold Change (Gpr153, TC ATA v. TC DMSO): 0.3215 | Log2 Fold Change (Gria3, TC ATA v. TC DMSO): 0.3582 | Log2 Fold Change (H4c4, TC ATA v. TC DMSO): -1.216 | Log2 Fold Change (Hbegf, TC ATA v. TC DMSO): -0.311 | Log2 Fold Change (Hbp1, TC ATA v. TC DMSO): 0.319 | Log2 Fold Change (Herc3, TC ATA v. TC DMSO): 0.3669 | Log2 Fold Change (Hoxa2, TC ATA v. TC DMSO): 0.4667 | Log2 Fold Change (Hsd17b11, TC ATA v. TC DMSO): 0.346 | Log2 Fold Change (Hsp90aa1, TC ATA v. TC DMSO): -0.2026 | Log2 Fold Change (Hspd1, TC ATA v. TC DMSO): -0.2284 | Log2 Fold Change (Ier2, TC ATA v. TC DMSO): 0.3913 | Log2 Fold Change (Ift81, TC ATA v. TC DMSO): 0.313 | Log2 Fold Change (Iigp1, TC ATA v. TC DMSO): -1.2476 | Log2 Fold Change (Il1rl2, TC ATA v. TC DMSO): 0.3914 | Log2 Fold Change (Il6st, TC ATA v. TC DMSO): 0.2694 | Log2 Fold Change (Ing5, TC ATA v. TC DMSO): -0.2587 | Log2 Fold Change (Insig2, TC ATA v. TC DMSO): 0.2804 | Log2 Fold Change (Itga6, TC ATA v. TC DMSO): -0.231 | Log2 Fold Change (Itm2c, TC ATA v. TC DMSO): 0.2782 | Log2 Fold Change (Jmjd4, TC ATA v. TC DMSO): -0.2865 | Log2 Fold Change (Kbtbd8, TC ATA v. TC DMSO): -0.558 | Log2 Fold Change (Kcna4, TC ATA v. TC DMSO): 0.5662 | Log2 Fold Change (Kcnn4, TC ATA v. TC DMSO): -0.2769 | Log2 Fold Change (Kirrel, TC ATA v. TC DMSO): 0.2228 | Log2 Fold Change (Klf4, TC ATA v. TC DMSO): 0.2452

From paper PMC9007350, “Aurintricarboxylic acid is a canonical disruptor of the TAZ-TEAD transcriptional complex” (PLoS ONE, 2022)
